These are yes or no findings as the source states them, for the method shown. Some entries that bind do so weakly or less than the wild type. Blank lines part the entries; values can stand above or below the molecule they belong to.
Legend:
[1] = target: Plexin-B1 intracellular region (ICR) (UniProt O43157); test: HDX-MS; plexin-B1 ICR alone against ternary mixtures plexin:Rac1.Q61L:Rap1b (~1:14.5:8.3) or plexin:Rnd1:Rap1b (~1:21.4:8.3); same buffers; exchange 10 sec, 25 min, 180 min; Acquity UPLC M-class with HDX manager; about 40% of plexin expected bound; both purified
[2] = target: Plexin-B1 intracellular region (ICR) (UniProt O43157); test: HDX-MS; plexin-B1 ICR alone against binary mixtures with Rac1.Q61L or Rnd1 (no Rap1b); labeling buffer 20 mM Tris.HCl pH 7.1 (pD 7.5), 150 mM NaCl, 5% glycerol, 2 mM TCEP, 0.005% Tween-20, 4 mM MgCl2 in D2O; exchange 10 sec, 2.5 min, 25 min, 180 min; legend says pH 7.0, 25 °C; pepsin digestion; Synapt G2-Si; both purified

The chains behind the UniProt entries cited, without tags or fusion partners. Residues count along the entry.
UniProt O43157, residues 1511-2135: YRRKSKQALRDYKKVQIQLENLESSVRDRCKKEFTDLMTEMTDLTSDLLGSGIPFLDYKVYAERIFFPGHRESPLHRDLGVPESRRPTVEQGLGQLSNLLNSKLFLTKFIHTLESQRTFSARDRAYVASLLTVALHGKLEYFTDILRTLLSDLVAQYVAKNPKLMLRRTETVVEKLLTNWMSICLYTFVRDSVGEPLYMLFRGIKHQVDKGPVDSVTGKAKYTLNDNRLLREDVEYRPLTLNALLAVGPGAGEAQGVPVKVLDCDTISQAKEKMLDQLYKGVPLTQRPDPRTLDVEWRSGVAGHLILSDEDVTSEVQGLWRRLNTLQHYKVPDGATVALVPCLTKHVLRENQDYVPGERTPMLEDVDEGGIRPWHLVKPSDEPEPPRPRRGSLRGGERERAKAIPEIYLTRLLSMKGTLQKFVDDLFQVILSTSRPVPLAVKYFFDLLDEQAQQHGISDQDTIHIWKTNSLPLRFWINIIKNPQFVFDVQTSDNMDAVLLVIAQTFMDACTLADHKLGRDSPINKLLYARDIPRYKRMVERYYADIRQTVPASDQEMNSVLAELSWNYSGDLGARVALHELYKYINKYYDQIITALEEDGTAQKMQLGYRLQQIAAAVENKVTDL
UniProt P61224: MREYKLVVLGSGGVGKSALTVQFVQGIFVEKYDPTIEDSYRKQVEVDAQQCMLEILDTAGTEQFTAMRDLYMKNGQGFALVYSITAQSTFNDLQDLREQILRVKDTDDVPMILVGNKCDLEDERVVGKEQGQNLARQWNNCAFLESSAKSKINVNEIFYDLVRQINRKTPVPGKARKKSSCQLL

binding [1]: binds
Molecule: Rap1b (from UniProt P61224 1-184)

binding [2]: binds
B1: Rnd1 (protein, UniProt Q92730 1-232)
chain: MKERRAPQPVVARCKLVLVGDVQCGKTAMLQVLAKDCYPETYVPTVFENYTACLETEEQRVELSLWDTSGSPYYDNVRPLCYSDSDAVLLCFDISRPETVDSALKKWRTEILDYCPSTRVLLIGCKTDLRTDLSTLMELSHQKQAPISYEQGCAIAKQLGAEIYLEGSAFTSEKSIHSIFRTASMLCLNKPSPLPQKSPVRSLSKRLLHLPSRSELISSTFKKEKAKSCSIM
